# Assay results taken from the supplement of paper PMC12823440, “Inhibitors supercharge kinase turnover through native proteolytic circuits” (Nature, 2025).
# The chains behind the UniProt entries cited, without tags or fusion partners. Where a name states a change or a piece, a line headed by the entry shows the natural chain unless it says otherwise.
# UniProt Q15131: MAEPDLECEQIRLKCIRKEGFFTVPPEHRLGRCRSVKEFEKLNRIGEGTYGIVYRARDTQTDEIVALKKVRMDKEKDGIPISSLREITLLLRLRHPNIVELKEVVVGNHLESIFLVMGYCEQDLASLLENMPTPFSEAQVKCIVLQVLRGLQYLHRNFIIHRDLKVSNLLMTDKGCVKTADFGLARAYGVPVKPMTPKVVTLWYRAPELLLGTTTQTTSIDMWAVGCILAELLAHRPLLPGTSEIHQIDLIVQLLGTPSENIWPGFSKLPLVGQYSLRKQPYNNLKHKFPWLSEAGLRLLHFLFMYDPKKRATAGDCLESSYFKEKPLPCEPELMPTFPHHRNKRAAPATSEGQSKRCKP
# UniProt P53667: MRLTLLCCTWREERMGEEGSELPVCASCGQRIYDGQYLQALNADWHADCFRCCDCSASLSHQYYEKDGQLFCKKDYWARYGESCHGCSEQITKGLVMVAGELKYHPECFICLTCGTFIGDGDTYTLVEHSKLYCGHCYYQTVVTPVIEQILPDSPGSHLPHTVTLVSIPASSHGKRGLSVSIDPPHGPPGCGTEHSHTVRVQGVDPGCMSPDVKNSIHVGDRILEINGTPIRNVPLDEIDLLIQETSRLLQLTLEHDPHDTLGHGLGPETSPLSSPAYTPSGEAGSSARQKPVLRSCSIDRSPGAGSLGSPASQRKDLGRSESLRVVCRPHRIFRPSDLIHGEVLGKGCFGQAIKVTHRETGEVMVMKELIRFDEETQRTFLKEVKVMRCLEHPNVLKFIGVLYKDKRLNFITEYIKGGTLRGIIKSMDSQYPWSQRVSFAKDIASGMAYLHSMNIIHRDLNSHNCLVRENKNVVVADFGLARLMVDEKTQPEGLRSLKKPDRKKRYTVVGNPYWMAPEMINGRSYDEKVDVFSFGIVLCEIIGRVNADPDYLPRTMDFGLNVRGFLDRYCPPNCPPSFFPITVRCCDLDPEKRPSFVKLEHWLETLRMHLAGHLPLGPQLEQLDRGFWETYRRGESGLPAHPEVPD
# UniProt Q96GD4, whole entry: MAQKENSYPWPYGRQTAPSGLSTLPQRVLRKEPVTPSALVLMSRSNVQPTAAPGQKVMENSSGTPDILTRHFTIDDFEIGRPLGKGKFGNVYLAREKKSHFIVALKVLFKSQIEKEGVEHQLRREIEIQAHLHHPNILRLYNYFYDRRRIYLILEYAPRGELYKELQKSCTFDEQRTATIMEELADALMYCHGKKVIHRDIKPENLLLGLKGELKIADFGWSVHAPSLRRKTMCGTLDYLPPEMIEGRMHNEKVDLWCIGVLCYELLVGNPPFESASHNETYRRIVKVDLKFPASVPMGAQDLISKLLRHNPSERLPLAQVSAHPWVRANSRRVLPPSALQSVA
# UniProt Q13131: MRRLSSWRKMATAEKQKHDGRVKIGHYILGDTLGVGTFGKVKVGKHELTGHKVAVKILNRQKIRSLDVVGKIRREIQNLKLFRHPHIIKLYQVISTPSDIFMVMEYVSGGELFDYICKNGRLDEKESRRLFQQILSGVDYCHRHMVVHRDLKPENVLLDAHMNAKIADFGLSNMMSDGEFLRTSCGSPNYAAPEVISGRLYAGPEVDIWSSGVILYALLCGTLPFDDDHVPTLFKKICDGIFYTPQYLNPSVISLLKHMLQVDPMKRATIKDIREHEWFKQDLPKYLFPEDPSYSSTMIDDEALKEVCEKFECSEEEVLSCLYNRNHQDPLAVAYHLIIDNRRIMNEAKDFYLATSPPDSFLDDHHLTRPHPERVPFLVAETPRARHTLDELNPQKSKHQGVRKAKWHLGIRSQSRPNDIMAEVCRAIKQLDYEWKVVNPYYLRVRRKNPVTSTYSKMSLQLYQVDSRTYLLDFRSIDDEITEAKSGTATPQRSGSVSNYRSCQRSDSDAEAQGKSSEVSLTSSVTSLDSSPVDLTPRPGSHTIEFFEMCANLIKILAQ
# UniProt P49137, whole entry, looked up: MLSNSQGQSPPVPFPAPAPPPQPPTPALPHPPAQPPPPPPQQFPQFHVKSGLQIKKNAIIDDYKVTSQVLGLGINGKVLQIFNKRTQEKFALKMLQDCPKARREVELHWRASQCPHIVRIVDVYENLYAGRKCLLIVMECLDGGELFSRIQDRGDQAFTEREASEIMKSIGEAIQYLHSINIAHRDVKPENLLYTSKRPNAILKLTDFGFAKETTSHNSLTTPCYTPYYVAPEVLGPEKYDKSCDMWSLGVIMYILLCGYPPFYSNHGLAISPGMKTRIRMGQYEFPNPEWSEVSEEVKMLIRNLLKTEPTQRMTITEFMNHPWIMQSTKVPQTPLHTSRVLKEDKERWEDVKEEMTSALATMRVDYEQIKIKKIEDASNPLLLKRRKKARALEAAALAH
# UniProt Q15118, whole entry, looked up: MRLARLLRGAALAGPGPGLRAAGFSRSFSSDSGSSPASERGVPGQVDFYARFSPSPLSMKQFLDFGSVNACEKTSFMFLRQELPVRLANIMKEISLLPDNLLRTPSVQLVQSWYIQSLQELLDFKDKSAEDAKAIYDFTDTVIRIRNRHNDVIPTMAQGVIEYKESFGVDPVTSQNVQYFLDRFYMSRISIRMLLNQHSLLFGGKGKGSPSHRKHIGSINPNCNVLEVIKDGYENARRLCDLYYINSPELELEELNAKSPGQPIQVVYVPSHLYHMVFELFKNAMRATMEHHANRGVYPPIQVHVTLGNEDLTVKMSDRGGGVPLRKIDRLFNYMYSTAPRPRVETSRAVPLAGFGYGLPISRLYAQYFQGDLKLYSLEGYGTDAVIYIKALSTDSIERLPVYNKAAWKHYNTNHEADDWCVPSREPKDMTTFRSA
# UniProt Q00535, whole entry, looked up: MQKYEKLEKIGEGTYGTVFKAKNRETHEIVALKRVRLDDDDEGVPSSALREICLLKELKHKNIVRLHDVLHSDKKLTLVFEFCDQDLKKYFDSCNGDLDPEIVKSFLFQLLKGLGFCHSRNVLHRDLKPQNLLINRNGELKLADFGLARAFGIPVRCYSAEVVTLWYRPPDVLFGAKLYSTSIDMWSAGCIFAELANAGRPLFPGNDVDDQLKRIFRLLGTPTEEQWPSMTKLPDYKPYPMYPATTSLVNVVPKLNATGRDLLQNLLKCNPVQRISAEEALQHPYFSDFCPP
# UniProt O96013: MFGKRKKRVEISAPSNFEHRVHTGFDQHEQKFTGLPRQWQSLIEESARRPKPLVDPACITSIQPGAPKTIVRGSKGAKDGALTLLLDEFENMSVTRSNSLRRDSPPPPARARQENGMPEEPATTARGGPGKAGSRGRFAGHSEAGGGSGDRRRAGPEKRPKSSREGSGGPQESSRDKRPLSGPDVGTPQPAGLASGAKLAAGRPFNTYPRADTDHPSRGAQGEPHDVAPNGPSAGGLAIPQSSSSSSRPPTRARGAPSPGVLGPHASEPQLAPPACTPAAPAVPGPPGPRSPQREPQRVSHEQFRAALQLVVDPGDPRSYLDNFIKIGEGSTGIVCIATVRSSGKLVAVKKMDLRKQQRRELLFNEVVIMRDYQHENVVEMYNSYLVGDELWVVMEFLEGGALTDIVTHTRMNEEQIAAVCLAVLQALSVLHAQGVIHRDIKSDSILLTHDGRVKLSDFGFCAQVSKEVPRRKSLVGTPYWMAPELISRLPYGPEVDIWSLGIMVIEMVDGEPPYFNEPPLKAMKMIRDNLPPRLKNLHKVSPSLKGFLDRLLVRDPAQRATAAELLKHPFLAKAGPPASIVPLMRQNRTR
# UniProt Q15303, whole entry R711C: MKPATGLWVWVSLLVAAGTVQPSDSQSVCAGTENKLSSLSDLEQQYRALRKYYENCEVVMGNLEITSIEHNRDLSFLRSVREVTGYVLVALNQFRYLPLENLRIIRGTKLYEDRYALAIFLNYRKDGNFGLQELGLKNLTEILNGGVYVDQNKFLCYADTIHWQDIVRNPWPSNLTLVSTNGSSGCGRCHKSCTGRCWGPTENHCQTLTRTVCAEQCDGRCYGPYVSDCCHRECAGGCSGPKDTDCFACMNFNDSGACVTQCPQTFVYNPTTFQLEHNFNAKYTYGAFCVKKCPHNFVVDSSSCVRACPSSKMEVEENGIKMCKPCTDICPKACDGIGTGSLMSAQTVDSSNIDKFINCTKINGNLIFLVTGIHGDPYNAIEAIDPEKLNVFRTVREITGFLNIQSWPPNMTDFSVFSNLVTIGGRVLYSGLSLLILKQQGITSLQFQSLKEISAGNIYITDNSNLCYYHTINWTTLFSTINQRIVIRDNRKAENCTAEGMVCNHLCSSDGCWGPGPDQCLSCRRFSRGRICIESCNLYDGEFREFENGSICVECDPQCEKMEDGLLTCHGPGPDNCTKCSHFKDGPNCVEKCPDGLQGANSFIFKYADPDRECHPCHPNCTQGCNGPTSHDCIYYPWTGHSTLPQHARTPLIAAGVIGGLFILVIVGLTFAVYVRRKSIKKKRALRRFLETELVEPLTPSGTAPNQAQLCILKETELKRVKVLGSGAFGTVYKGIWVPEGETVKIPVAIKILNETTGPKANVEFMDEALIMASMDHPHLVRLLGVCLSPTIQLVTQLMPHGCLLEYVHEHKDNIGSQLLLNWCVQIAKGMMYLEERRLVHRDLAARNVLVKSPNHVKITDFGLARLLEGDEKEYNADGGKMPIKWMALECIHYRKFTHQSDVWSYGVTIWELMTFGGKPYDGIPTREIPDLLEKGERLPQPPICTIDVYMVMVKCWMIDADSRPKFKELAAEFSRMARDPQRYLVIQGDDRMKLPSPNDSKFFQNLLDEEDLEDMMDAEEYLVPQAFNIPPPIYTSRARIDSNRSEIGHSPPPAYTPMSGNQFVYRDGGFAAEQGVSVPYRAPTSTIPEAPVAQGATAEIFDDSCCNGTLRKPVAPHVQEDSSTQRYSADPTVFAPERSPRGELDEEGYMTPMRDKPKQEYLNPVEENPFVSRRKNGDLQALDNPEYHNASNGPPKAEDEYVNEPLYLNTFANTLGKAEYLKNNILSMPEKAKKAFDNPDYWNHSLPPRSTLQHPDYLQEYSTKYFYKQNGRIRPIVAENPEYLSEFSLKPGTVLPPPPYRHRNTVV
# UniProt Q16288, whole entry, looked up: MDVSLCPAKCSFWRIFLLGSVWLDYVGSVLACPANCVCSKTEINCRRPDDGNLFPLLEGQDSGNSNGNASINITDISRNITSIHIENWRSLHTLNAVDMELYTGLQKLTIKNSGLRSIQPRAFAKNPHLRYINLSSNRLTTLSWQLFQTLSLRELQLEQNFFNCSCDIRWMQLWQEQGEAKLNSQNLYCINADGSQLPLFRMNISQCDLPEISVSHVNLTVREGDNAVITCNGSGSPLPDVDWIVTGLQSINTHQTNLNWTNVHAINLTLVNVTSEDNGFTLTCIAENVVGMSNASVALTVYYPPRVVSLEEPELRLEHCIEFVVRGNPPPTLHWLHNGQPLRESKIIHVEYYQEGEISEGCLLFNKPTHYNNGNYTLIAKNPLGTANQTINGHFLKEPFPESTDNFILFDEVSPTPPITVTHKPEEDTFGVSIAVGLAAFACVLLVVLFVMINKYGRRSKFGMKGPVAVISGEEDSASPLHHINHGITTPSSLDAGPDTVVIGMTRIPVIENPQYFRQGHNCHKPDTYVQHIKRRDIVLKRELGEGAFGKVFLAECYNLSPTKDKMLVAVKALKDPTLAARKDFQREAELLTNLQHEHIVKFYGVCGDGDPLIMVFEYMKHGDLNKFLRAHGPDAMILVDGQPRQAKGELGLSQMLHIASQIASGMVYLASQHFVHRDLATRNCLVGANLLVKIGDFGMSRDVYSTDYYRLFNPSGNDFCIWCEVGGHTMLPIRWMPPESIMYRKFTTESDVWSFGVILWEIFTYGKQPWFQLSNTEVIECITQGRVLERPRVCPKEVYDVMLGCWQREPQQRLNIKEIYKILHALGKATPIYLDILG
# UniProt Q9UBF8: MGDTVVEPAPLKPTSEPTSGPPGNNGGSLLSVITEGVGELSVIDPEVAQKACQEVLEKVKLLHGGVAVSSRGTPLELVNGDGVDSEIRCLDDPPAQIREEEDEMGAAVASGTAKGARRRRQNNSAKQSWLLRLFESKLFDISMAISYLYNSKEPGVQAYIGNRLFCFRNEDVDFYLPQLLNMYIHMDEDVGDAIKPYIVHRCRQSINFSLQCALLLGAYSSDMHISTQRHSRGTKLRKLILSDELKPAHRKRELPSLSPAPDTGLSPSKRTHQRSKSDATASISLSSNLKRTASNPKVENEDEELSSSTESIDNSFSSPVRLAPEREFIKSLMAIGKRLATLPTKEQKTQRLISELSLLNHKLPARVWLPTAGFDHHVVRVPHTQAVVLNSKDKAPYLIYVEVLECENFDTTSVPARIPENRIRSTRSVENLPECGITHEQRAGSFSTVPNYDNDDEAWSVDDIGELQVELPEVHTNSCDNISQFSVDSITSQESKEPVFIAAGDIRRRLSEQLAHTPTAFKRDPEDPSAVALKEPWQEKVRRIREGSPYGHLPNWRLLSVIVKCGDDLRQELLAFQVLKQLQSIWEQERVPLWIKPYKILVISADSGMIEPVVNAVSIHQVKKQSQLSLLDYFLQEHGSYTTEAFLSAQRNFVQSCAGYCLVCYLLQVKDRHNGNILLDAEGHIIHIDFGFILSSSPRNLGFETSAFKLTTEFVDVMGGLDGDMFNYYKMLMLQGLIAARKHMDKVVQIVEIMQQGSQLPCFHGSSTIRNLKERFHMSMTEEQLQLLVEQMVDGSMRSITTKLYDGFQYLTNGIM
# Some of the results follow. Hit calls seldom repeat between salt and free forms of one compound.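 In K562 cells expressing nanoluciferase-fused kinases, luminescence was recorded at 4 h intervals between 2 and 18 h, normalized as percent of control with DMSO at 100% and a positive control at 0%. A significant (2 sigma) signal drop marks a time point as decreased. The authors' rule for a hit is not shown and takes in more than the number of time points.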
# Experiments:
# Assay in all cases: number of time points (of 5) at which kinase-Nluc abundance scored as decreased, DMSO-normalised (count); higher = more persistent destabilization
# Trametinib = compound: CC(=O)Nc1cccc(-n2c(=O)n(C3CC3)c(=O)c3c(Nc4ccc(I)cc4F)n(C)c(=O)c(C)c32)c1 [Trametinib]; conditions: 10 µM; K562; 2-18 h
# [1] = compound: CC(=O)c1c(C)c2cnc(Nc3ccc(N4CCNCC4)cn3)nc2n(C2CCCC2)c1=O [Palbociclib (isethionate)]; conditions: 10 µM; K562; 2-18 h
# [2] = compound: CC(=O)c1c(C)c2cnc(Nc3ccc(N4CCNCC4)cn3)nc2n(C2CCCC2)c1=O [Palbociclib (monohydrochloride)]; conditions: 10 µM; K562; 2-18 h
# [3] = compound: CC(C)(C)n1nc(-c2cccc3ccccc23)c2c(N)ncnc21 [1-Naphthyl PP1 (hydrochloride)]; conditions: 10 µM; K562; 2-18 h
# 1-Naphthyl PP1 = compound: CC(C)(C)n1nc(-c2cccc3ccccc23)c2c(N)ncnc21 [1-Naphthyl PP1]; conditions: 10 µM; K562; 2-18 h
# [4] = compound: CC(C)NC[C@@H](C(=O)N1CCN(c2ncnc3c2[C@H](C)C[C@H]3O)CC1)c1ccc(Cl)cc1 [Ipatasertib (dihydrochloride)]; conditions: 10 µM; K562; 2-18 h
# Ipatasertib = compound: CC(C)NC[C@@H](C(=O)N1CCN(c2ncnc3c2[C@H](C)C[C@H]3O)CC1)c1ccc(Cl)cc1 [Ipatasertib]; conditions: 10 µM; K562; 2-18 h
# [5] = compound: CC(C)Nc1cc(-c2c[nH]c(C(=O)N[C@H](CO)c3cccc(Cl)c3)c2)c(Cl)cn1 [Ulixertinib (hydrochloride)]; conditions: 10 µM; K562; 2-18 h
# Ulixertinib = compound: CC(C)Nc1cc(-c2c[nH]c(C(=O)N[C@H](CO)c3cccc(Cl)c3)c2)c(Cl)cn1 [Ulixertinib]; conditions: 10 µM; K562; 2-18 h
# [6] = compound: CC(C)Oc1ccc(-c2nn([C@@H](C)c3oc4ccc(F)cc4c(=O)c3-c3cccc(F)c3)c3ncnc(N)c23)cc1F [Umbralisib (hydrochloride)]; conditions: 2.5 µM; K562; 2-18 h
# Umbralisib = compound: CC(C)Oc1ccc(-c2nn([C@@H](C)c3oc4ccc(F)cc4c(=O)c3-c3cccc(F)c3)c3ncnc(N)c23)cc1F [Umbralisib]; conditions: 2.5 µM; K562; 2-18 h
# Bucladesine (calcium) = compound: CCCC(=O)Nc1ncnc2c1ncn2[C@@H]1O[C@@H]2COP(=O)(O)O[C@H]2[C@H]1OC(=O)CCC [Bucladesine (calcium)]; conditions: 10 µM; K562; 2-18 h
# Bucladesine (sodium) = compound: CCCC(=O)Nc1ncnc2c1ncn2[C@@H]1O[C@@H]2COP(=O)(O)O[C@H]2[C@H]1OC(=O)CCC [Bucladesine (sodium)]; conditions: 10 µM; K562; 2-18 h
# [7] = compound: CCCCCCCCc1ccc(CCC(N)(CO)CO)cc1 [Fingolimod (hydrochloride)]; conditions: 2.5 µM; K562; 2-18 h
# Fingolimod = compound: CCCCCCCCc1ccc(CCC(N)(CO)CO)cc1 [Fingolimod]; conditions: 2.5 µM; K562; 2-18 h
# [8] = compound: CCN(CC)CC(=O)Nc1c(C)cccc1C [Lidocaine (hydrochloride)]; conditions: 10 µM; K562; 2-18 h
# Lidocaine = compound: CCN(CC)CC(=O)Nc1c(C)cccc1C [Lidocaine]; conditions: 10 µM; K562; 2-18 h
# [9] = compound: CCN(CC)Cc1ccc(OC)c(-c2cc3c(-c4ccc(C(=O)O)c(C(C)C)c4)ccnc3[nH]2)c1; conditions: K562, 2-18 h
# Baricitinib (phosphate) = compound: CCS(=O)(=O)N1CC(CC#N)(n2cc(-c3ncnc4[nH]ccc34)cn2)C1 [Baricitinib (phosphate)]; conditions: 10 µM; K562; 2-18 h
# Baricitinib = compound: CCS(=O)(=O)N1CC(CC#N)(n2cc(-c3ncnc4[nH]ccc34)cn2)C1 [Baricitinib]; conditions: 10 µM; K562; 2-18 h
Target,number of time points (Trametinib),number of time points [1],number of time points [2],number of time points [3],number of time points (1-Naphthyl PP1),number of time points [4],number of time points (Ipatasertib),number of time points [5],number of time points (Ulixertinib),number of time points [6],number of time points (Umbralisib),number of time points (Bucladesine (calcium)),number of time points (Bucladesine (sodium)),number of time points [7],number of time points (Fingolimod),number of time points [8],number of time points (Lidocaine),number of time points ([9]; 2.5 µM),number of time points ([9]; 10 µM),number of time points (Baricitinib (phosphate)),number of time points (Baricitinib)
CDK10 (UniProt Q15131),0,0,0,0,0,0,0,0,0,0,0,0,0,0,0,0,0,0,0,0,0
LIMK1 (UniProt P53667),0,0,0,0,0,0,0,0,0,0,0,0,0,0,0,0,0,0,0,0,0
AURKB (UniProt Q96GD4),1,3,0,0,0,0,0,0,0,0,0,0,0,0,0,0,0,0,0,0,0
PRKAA1 (UniProt Q13131),0,0,0,0,0,0,0,0,0,0,0,0,0,0,0,0,0,0,0,0,0
MAPKAPK2 (UniProt P49137),0,0,0,0,0,0,0,0,0,0,0,0,0,0,0,0,0,0,0,0,0
PDK1 (UniProt Q15118),0,0,0,0,0,0,0,0,0,0,0,0,0,0,0,0,0,0,0,0,0
CDK5 (UniProt Q00535),0,0,0,0,0,0,0,0,0,0,0,0,0,0,0,0,0,0,0,0,0
PAK4 (UniProt O96013),0,0,0,0,0,0,0,0,0,0,0,0,0,0,0,0,0,0,0,0,0
ALK (UniProt Q9UM73),0,0,0,0,0,0,0,0,0,0,0,0,0,0,0,0,0,0,0,0,0
ERBB4_R711C (clone: ERBB4_mut) (UniProt Q15303),0,4,1,0,0,0,0,0,0,0,0,0,0,0,0,0,0,0,0,0,0
MAP2K2 (UniProt P36507),0,0,0,0,0,0,0,0,0,0,0,0,0,0,0,0,0,0,0,0,0
EGFR_L718V (UniProt P00533),0,0,0,0,0,0,0,0,0,0,0,0,0,0,0,0,0,0,0,0,0
NTRK3 (UniProt Q16288),0,0,0,0,0,0,0,0,0,0,0,0,0,0,0,0,0,0,0,0,0
PIK4CB (UniProt Q9UBF8),0,0,0,0,0,0,0,0,0,0,0,0,0,0,0,0,0,0,0,0,0

# Some entries already given, reduced to number of time points ([9]; 10 µM):
Target | number of time points ([9]; 10 µM)
ERBB4_R711C (clone: ERBB4_mut) (UniProt Q15303) | 0
MAP2K2 (UniProt P36507) | 0
